Source: PubChem BioAssay AID1159506 (NCATS, 2015).

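Genome-wide siRNA knockdown in TC32 Ewing sarcoma cells, comparing luciferase light from an NR0B1-promoter reporter with a CMV-promoter reporter 48 hours after transfection. Each siRNA was applied at 20 nM. A z-score of the log NR0B1-over-CMV signal, less the median of siRNAs with the same seed; more negative means a stronger specific loss of the NR0B1 reporter.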

The strongest results of the screen are mostly left out here. Sequences are the guide (antisense) strand, without overhang.

For UCCAGCAAAAGCAUCAUCC against LGI2 the result was seed-corrected z-score -0.6022. UCUAAUUCUAAGGUCUCUG against LOC646670 gave seed-corrected z-score -1.314. With UAGCUUUUGACGUGCUUGU against PLN the assay gave seed-corrected z-score 0.2268. With ACUGAUUUAGGAUAGUUGG against NSUN3 the assay gave seed-corrected z-score 0.3148.

Result for UAGAGGGUAGCAACAUAGU against KRTAP4-2 was seed-corrected z-score -1.11. Result for UGAUCUUUCUGUAUCCGGC against DKK1 was seed-corrected z-score -0.2871. With UUCAGUACAACUGACUCCC against C6orf10 the assay gave seed-corrected z-score 0.5563. With UUAGUAGUUGGACUUAGGG against HBB the assay gave seed-corrected z-score 0.6852.

For UCGAUGGUAAUGUCGUCCG against NRXN2 the result was seed-corrected z-score -1.669. Result for UGAGGUCUAAGAAGUAGUU against SPHAR was seed-corrected z-score -1.029. With AGAGUUGUUCACGUAGACC against KCNMB4 the assay gave seed-corrected z-score 0.0144. Result for AACAUCAUGAGAGUCUUCC against MESDC2 was seed-corrected z-score -0.1298.

Result for UGAGUACUGAGGACUGUGC against AMIGO3 was seed-corrected z-score 0.4525. AUCAUUGUAGUUUGCAUUG against TNFSF18 read seed-corrected z-score 0.5964. UAUGGAAAACGUGAGGCCU against PMM2 read seed-corrected z-score 0.6508. For AUAGAUGUAAGGCACAUUG against TXNRD1 the result was seed-corrected z-score -0.2737.

AAACCAUCAAUGAUAAGAG against PIAS3 gave seed-corrected z-score -0.6654. UUCAUGAGCAGUGAACUUG against OR2K2 read seed-corrected z-score 0.3193. For UAUAAUACUGGAUUGCUUG against LINC01011 the result was seed-corrected z-score -0.06577. Result for AACGUGUAUACAUCAGCUG against XRCC4 was seed-corrected z-score 0.5938.

AUCAGAAUAAAAGUGGUCC against RRP15 read seed-corrected z-score 1.727. For UCUGCAAUCAGUUGCAAGC against TNFSF13B the result was seed-corrected z-score -0.01719. UCAGCAAAGCCCUUGAGCC against ADSSL1 gave seed-corrected z-score 0.4058. UUUCUAUGAAGAUCUUCCC against IGSF3 gave seed-corrected z-score -0.367.

AAUUGAGUGUCUUCAGUCC against IL20 gave seed-corrected z-score 0.9754. CAAAGAGAAGAAUUUCUUU against MIR1-1HG gave seed-corrected z-score 0.4765. With AUCGGUAUAGGGUGGAGCC against DAZAP2 the assay gave seed-corrected z-score 1.25. UUUUGGACCAGGGAUAAUC against MYBPC1 read seed-corrected z-score 0.2022.

UCAUUGGUUACCAUAAGAG against CCT2 read seed-corrected z-score -0.4187. UUAGCAUUGUCAAAAUUGC against SYTL3 gave seed-corrected z-score -0.04885. For UUAUGUACAGGUAGGAGGG against MAP3K8 the result was seed-corrected z-score -1.232. Result for AGAGCUAUACGCAAAAUCC against ZNF285 was seed-corrected z-score -0.08831.

UUCUCUAUCCACUCUACCC against BTNL2 read seed-corrected z-score 0.2734. UGGAUUGUCUCGGAUGUGG against CRHR2 gave seed-corrected z-score -0.03665. Result for UUCCGGUUGGUAUCCAUGG against TMPRSS2 was seed-corrected z-score -0.09931. AAGUUGAUUUGUAAUAGGC against ZNF766 read seed-corrected z-score -0.6032.

Result for UCGCUGAAUUUUUAGGUUC against HAUS3 was seed-corrected z-score 0.222. UUAGUGUCUUAAAUGAUCA against DIO1 read seed-corrected z-score 0.6689. For ACAGCAAAGAGGGACAGCU against TREX2 the result was seed-corrected z-score 0.7745. Result for UUAGUAAGGAGGGAGACAG against AMMECR1L was seed-corrected z-score -0.5233.

With UAUGUCACAAACCUUGUGG against API5 the assay gave seed-corrected z-score 0.2257. With UCCGAUAAACUUCCUCUGC against LUC7L2 the assay gave seed-corrected z-score -0.1855. AACUGGAGUAGAUGGUGCG against DLX2 gave seed-corrected z-score -0.4277. For AUUGCAUUGAAAGUUUUUG against ZNF695 the result was seed-corrected z-score -0.6789.

Result for UUAAUGGUUUAGUAUGAGC against S100PBP was seed-corrected z-score 0.2197. AUUCUUAUUGGUUCCUUCC against TMEM143 gave seed-corrected z-score 0.1398. ACUCGUUGCACUGAUAUGG against ZNF624 read seed-corrected z-score -1.06. AAUGGUUGAAUGAAGGAGC against LOC283710 read seed-corrected z-score -0.2077.

For UGUUCUUGAAGUACUCCGC against SLC13A4 the result was seed-corrected z-score -0.08035. With UGCUUUGUCACGUAUCAGG against KLRB1 the assay gave seed-corrected z-score -0.007347. For UCAUAUCCAAGGAUGGAUC against SEC31A the result was seed-corrected z-score 0.5666.